{"source": "PubChem BioAssay AID1259308 (NCATS, 2017)", "assay": "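Knock-downs that increase output of a recombinant reporter protein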 (primary screen)", "cells": "human HEK293 embryonic kidney cells stably expressing firefly luciferase (HEK-CMV-Luc2-Hygro)", "reagents": "single siRNA against human genes, 0.8 pmol siRNA per well", "time to read-out": "72 h", "measurement": "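Luciferase light (ONE-Glo) measured on one replicate plate set and viability (CellTiter-Glo) on the other, scaled to a negative control siRNA, with robust z-scores and luciferase per cell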", "reading the numbers": "total luciferase, z-score: higher = more reporter protein produced", "active means": "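Active when the median/MAD z-score for overall luciferase is greater than 3; a gene was taken forward for validation with new siRNAs if at least two of its three siRNAs passed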", "calls": "active = raised luciferase; inactive = no rise", "note": "The whole screen tested about 59,000 reagents; below is a part drawn at random. Of all reagents, about 1,510 (2.6%) were called active. 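Calls use total luciferase alone and ignore viability, so some active siRNAs may act by altering cell number.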 Reagents against one gene are numbered here. Further read-outs or replicates are left out here. No sequences are given here."}
{"gene symbol": "INTS2", "reagent": 1, "total luciferase, z-score": 4.18, "outcome": "active"}
{"gene symbol": "INTS2", "reagent": 2, "total luciferase, z-score": 1.71, "outcome": "inactive"}
{"gene symbol": "INTS2", "reagent": 3, "total luciferase, z-score": 4.08, "outcome": "active"}
{"gene symbol": "HIGD1B", "reagent": 1, "total luciferase, z-score": 0.488, "outcome": "inactive"}
{"gene symbol": "HIGD1B", "reagent": 2, "total luciferase, z-score": -0.337, "outcome": "inactive"}
{"gene symbol": "HIGD1B", "reagent": 3, "total luciferase, z-score": -0.488, "outcome": "inactive"}

Hits (from the list above):
{"gene symbol": "INTS2", "reagent": 1, "total luciferase, z-score": 4.18, "outcome": "active"}
{"gene symbol": "INTS2", "reagent": 3, "total luciferase, z-score": 4.08, "outcome": "active"}

More records follow:
{"gene symbol": "PRKN", "reagent": 1, "total luciferase, z-score": 0.116, "outcome": "inactive"}
{"gene symbol": "PRKN", "reagent": 2, "total luciferase, z-score": 5.69, "outcome": "active"}
{"gene symbol": "PRKN", "reagent": 3, "total luciferase, z-score": -0.0908, "outcome": "inactive"}
{"gene symbol": "SLC8B1", "reagent": 1, "total luciferase, z-score": 0.861, "outcome": "inactive"}
{"gene symbol": "SLC8B1", "reagent": 2, "total luciferase, z-score": 0.0551, "outcome": "inactive"}
{"gene symbol": "SLC8B1", "reagent": 3, "total luciferase, z-score": -0.677, "outcome": "inactive"}
